# PubChem BioAssay AID1259425, University of Nebraska Medical Center | 2018
# Aim: 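Compare each knockdown with KSR1 silencing using changes in marker transcripts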 (primary screen)
# Cell system: HCT116 human colon cancer cells
# Reagents: siRNA pool against human genes, 50 nM siRNA
# Detection: 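mRNA of six signature genes measured together by branched-DNA assay after 50 nM siRNA pool, blank removed, divided by geometric mean of two housekeeping genes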
# Reading the numbers: BNIP3L mRNA: higher = more BNIP3L transcript after knockdown; NDRG1 mRNA: higher = more NDRG1 transcript after knockdown; BNIP3 mRNA: higher = more BNIP3 transcript after knockdown; ALDOC mRNA: higher = more ALDOC transcript after knockdown; ACSL5 mRNA: higher = more ACSL5 transcript after knockdown
# The deposit covers about 14,000 reagents; below is a part drawn at random. Reagent sequences are not shown. Not stated in the record: the time to read-out.
target gene,"BNIP3L mRNA, set 1","NDRG1 mRNA, set 1","BNIP3 mRNA, set 1","ALDOC mRNA, set 1","ACSL5 mRNA, set 1"
ZNHIT3 (zinc finger HIT-type containing 3),0.081,0.105,0.277,0.025,0.095
EBF1 (EBF transcription factor 1),0.126,0.135,0.313,0.0274,0.103
LSP1 (lymphocyte specific protein 1),0.0979,0.241,0.196,0.0396,0.397
RIMKLB (ribosomal modification protein rimK like family member B),0.113,0.134,0.282,0.0324,0.208
TRIM46 (tripartite motif containing 46),0.117,0.26,0.343,0.0153,0.159
LYL1 (LYL1 basic helix-loop-helix family member),0.0608,0.782,0.399,0.0149,0.264
BRI3BP (BRI3 binding protein),0.1,0.0791,0.256,0.0133,0.103
ZNF285 (zinc finger protein 285),0.296,0.302,0.704,0.0838,0.334
ARPC5L (actin related protein 2/3 complex subunit 5 like),0.138,0.134,0.323,0.0452,0.191
NEK10 (NIMA related kinase 10),0.129,0.219,0.304,0.0182,0.562
CEP131 (centrosomal protein 131),0.131,0.402,0.335,0.0179,0.21
PEX11B (peroxisomal biogenesis factor 11 beta),0.0816,0.124,0.298,0.0194,0.116
BCL2L12 (BCL2 like 12),0.0774,0.388,0.192,0.0555,0.698
PHIP (PHIP subunit of CUL4-Ring ligase complex),0.137,0.203,0.28,0.0328,0.121
DCTN1 (dynactin subunit 1),0.128,0.211,0.213,0.0212,0.316
SLC17A1,0.169,0.198,0.301,0.0652,0.106
CARHSP1 (calcium regulated heat stable protein 1),0.0658,0.335,0.413,0.014,0.329
TBC1D13 (TBC1 domain family member 13),0.0903,0.223,0.268,0.0153,0.282
MAPK10 (mitogen-activated protein kinase 10),0.105,0.0921,0.279,0.0076,0.126
AHR (aryl hydrocarbon receptor),0.0579,0.181,0.23,0.0407,0.103
TRIM23 (tripartite motif containing 23),0.0632,0.125,0.213,0.0152,0.102
ABCC9 (ATP binding cassette subfamily C member 9),0.0689,0.135,0.185,0.0305,0.105
NME6 (NME/NM23 nucleoside diphosphate kinase 6),0.0312,0.162,0.357,0.00665,0.359
USP28 (ubiquitin specific peptidase 28),0.0559,0.168,0.187,0.0146,0.0882
RETSAT (retinol saturase),0.108,0.426,0.381,0.0132,0.149
PTGFRN (prostaglandin F2 receptor inhibitor),0.0607,0.483,0.209,0.0191,0.164
KCNF1,0.142,0.246,0.216,0.00934,0.265
TRIM52 (tripartite motif containing 52),0.326,0.447,0.54,0.0609,0.339
MDH2 (malate dehydrogenase 2),0.0923,0.355,0.332,0.0366,0.288
KIR2DL5A,0.0845,0.0789,0.279,0.0339,0.129
AS3MT (arsenite methyltransferase),0.192,0.227,0.356,0.0953,0.632
GTF2A2 (general transcription factor IIA subunit 2),0.0553,0.027,0.293,0.0146,0.131
VPS13A (vacuolar protein sorting 13 homolog A),0.089,0.137,0.147,0.0234,0.108
CACNA1D (calcium voltage-gated channel subunit alpha1 D),0.292,0.108,0.428,0.0462,0.131
